These are yes or no findings as the source states them, for the method shown. Binding seen in cells or lysates may run through a third protein. Where a sequence is shown, tags or fusion partners need not be part of it.

This test deals with T1, GFP-PKB (pEGFP-HA-Akt, murine AKT1) (mouse), P31750.
T1 chain: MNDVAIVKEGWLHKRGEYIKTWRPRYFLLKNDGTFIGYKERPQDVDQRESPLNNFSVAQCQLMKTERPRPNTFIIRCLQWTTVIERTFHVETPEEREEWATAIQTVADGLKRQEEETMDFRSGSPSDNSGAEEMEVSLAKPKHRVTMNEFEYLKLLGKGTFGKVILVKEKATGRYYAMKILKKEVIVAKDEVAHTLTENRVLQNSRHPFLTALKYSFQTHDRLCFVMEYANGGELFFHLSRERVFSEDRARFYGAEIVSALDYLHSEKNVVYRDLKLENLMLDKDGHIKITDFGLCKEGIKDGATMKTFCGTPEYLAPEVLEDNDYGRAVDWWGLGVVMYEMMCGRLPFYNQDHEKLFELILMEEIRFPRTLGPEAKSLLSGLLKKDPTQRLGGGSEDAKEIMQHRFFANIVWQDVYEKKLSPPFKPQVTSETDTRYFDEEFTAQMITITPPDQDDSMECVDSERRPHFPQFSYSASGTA
The test is described as follows: FRET or BRET; FRET detected by two-photon time domain FLIM (decrease of EGFP donor lifetime with mRFP acceptor) in cotransfected NIH3T3 cells fixed in 4% paraformaldehyde; basal, 5 min PDGF, or 20 min LY294002 pretreatment before PDGF; cytoplasm and plasma membrane pixels separated. The note with it: remark: other sources report otherwise.

B1: RFP-PKB (monomeric RFP fused to the N terminus of HA-PKBalpha, murine AKT1), P31750 1-480 (enzyme)
chain: T1 chain
As for B1, the binding entry is “no binding”.

Values taken from PMC1845162.
